US10155798B2, “Anti-obesity compounds derived from neuromedin U” (The Regents of the University of California, priority 2013, dated 2018)
At least one structure is not confirmed: it was looked up by name or label, or the drawing left a doubt. Where a SMILES comes first, the peptide text is derived from it. [ ]: non-standard residue; d: D form. The star is where a group is joined. PEG12 = NCCOCCOCCOCCOCCOCCOCCOCCOCCOCCOCCOCCOCCC(=O)O; Palmitoyl = CCCCCCCCCCCCCCCC(=O)*; Aib = CC(C)(N)C(=O)O

The chains behind the UniProt entries cited, without tags or fusion partners. Where a name states a change or a piece, a line headed by the entry shows the natural chain unless it says otherwise.
UniProt Q9GZQ4: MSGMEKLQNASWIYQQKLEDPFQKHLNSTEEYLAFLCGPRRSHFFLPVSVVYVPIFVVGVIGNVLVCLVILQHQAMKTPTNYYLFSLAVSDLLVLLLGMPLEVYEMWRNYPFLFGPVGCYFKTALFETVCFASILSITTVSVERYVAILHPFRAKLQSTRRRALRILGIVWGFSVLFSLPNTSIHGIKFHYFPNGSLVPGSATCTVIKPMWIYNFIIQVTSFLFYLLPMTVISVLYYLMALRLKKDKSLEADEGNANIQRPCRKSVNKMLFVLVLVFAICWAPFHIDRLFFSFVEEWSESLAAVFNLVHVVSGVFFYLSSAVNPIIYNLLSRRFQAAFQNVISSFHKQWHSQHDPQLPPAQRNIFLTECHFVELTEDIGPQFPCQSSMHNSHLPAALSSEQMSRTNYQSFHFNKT

Molecular target: T1, NMUR2 (neuromedin U 2 receptor) (Homo sapiens, UniProt Q9GZQ4)
T1 construct: expressed in transfected cells; host or cells: HEK293 (HEK-NMU2)
Experiment: Calcium mobilization assay, HEK-NMU2 cells
Type: cell-based
Details: HEK293 cells expressing NMU2 receptor, NA = not active
Experimental: To test whether neuromedin U can be modified/derivatized to yield truncated bioactive compound(s) that may be useful as therapeutics, we synthesized a small library (25 peptides) of hNMU analogs utilizing various stabilization protocols, including: cyclization, lipidation, introduction of α,α-disubstituted and N-methylated amino acids, retro-inverso-approach, and combination of such (see Table 1). Subsequently all analogues were tested against human neuromedin U receptors (NMUR1 and NMUR2) in calcium mobilization assay (collaboration with Dr Gary Willars, University of Leicester, UK).
HEK293 cells expressing either the neuromedin U 1 receptor or neuromedin U 2 receptor (HEK-NMU1 and HEK-NMU2 respectively) were grown to approximately 90% confluence in ELISA strip plates (96-well format) pre-coated with poly-D-lysine (0.1% w/v) and loaded for 45 min at 37° C. with 2 iM fluo-4-AM in Krebs'-HEPES buffer with bovine serum albumin (KHB-BSA; composition: 10 mM HEPES; 4.2 mM NaHCO3; 11.7 mM D-glucose; 1.18 mM MgSO4.7H2O; 1.18 mM KH2PO4; 4.69 mM KCl; 118 mM NaCl; 1.3 mM CaCl2.2H2O; 0.1% (w/v) BSA; pH 7.4). Monolayers were then washed and equilibrated for 5 min at 37° C. in 100 il KHB-BSA for subsequent recording of fluorescence as an index of intracellular [Ca^2+] ([Ca^2+]i) using a microplate reader (NOVOstar; BMG LABTECH, Aylesbury, U.K.). […]

Row | Structure (SMILES) | EC50 [nM]
1 | CCCCCCCCCCCCCCCCNC(=O)CN(CC(=O)NC(C)(C)C(=O)N[C@@H](Cc1ccccc1)C(=O)N[C@@H](CC(C)C)C(=O)N[C@@H](Cc1ccccc1)C(=O)N[C@@H](CCCNC(=N)N)C(=O)N1CCC[C@H]1C(=O)N[C@@H](CCCNC(=N)N)C(=O)N[C@@H](CC(N)=O)C(N)=O)C(=O)c1cccnc1 [Peptide M4A-Nic, Nic-Ida^NHPal-Aib-FL-Phe-Arg-Pro-R-Asn] | 31.6 ± 1.5
2 | CCCCCCCCCCCCCCCC(=O)NCCOCCOCCOCCOCCOCCOCCOCCOCCOCCOCCOCCOCCC(=O)NC(C)(C)C(=O)N[C@@H](Cc1ccccc1)C(=O)N[C@@H](CC(C)C)C(=O)N[C@@H](Cc1ccccc1)C(=O)N[C@@H](CCCNC(=N)N)C(=O)N1CCC[C@H]1C(=O)N[C@@H](CCCNC(=N)N)C(=O)N[C@@H](CC(N)=O)C(=O)NC(C)(C)C(N)=O [Peptide M7, Pal-dPEG12-Aib-FL-Phe-Arg-Pro-R-Asn-Aib] ({Palmitoyl-PEG12}-[Aib]FLFRPRN[Aib]-NH2; N-terminus and C-terminus assumed) | 100 ± 25.9
